Results published in patent publication US9023957 (dated 2015).

Assay: general procedure: Fmoc solid-phase peptide synthesis; BMEA linker resin; Rink amide MBHA resin (0.65 mmol/g); Wang resin (0.44 mmol/g); PyBOP/DIEA; DIC/HOAt for first residue on BMEA resin
Details: coupling step

Substance | step yield
LKSFG-CLKFA | 100%
LKSFV-CLKFA | ≦5.00%
LKSFS-CLKFA | 99%
LKSFF-CLKFA | 98.30%
LKSFA-CLKFA | 100%

Same assay, conditions: late stage modification step

Substance | step yield [%]
LKSFG-MPA thioester | >85
